Measurements: publication PMC9198812
The exact form of at least one protein or probe is not confirmed. For some assays here: At least one verdict rests on a figure or table, not on a statement of the authors.

Tests used:
[1] = molecular target: gp4-R84A (bacteriophage T7) (UniProt P03692); test: mass photometry; details: 1 mM [beta,gamma-CH2] dTTP, 10 mM MgCl2, 150 mM KCl, profile resembles WT (text prints R86A); mass photometry: 40 mM Tris-HCl pH 7.5, 150 mM KCl, 10 mM MgCl2, 25 C, 8.7 nM gp4 hexamer, 10 nM ssDNA; recombinant protein; residues 1-566; protein details: His (implied: pET28, TALON); single-stranded DNA
[2] = molecular target: gp4-R84A (bacteriophage T7) (UniProt P03692); test: double-filter binding; details: 1 mM [beta,gamma-CH2] dTTP, 10 mM MgCl2, Filter binding: 40 mM Tris-HCl pH 7.5, 50 mM potassium glutamate, 10 mM MgCl2, 5 mM DTT, 30 min, 25 C, recombinant protein, residues 1-566, protein details: His (implied: pET28, TALON), label: 5'-32P, single-stranded DNA

Q: Does “ATGACCATGATTTCGACGTTTTTTTTTTTGGGGATCCTCTAACCTGCGCA [50-nt ssDNA, mass photometry]” bind [1]?
A: binds

Q: Which Kd [2] does the source give for “ATGACCATGATTTCGACGTTTTTTTTTTTGGGGATCCTCTAACCTGCGCA [50-nt ssDNA, 5'-32P]” here?
A: 0.128 µM
